Test: Specific content (hemoprotein concentration per mg protein) of purified proteins
Format: physicochemical
Settings: purified proteins used in reconstitution assays

## P450 3A4: recombinant human protein expressed in Escherichia coli and purified
  Specific content: 11 nmol/mg protein

B1: Cytochrome b5: human cytochrome b5, recombinant, expressed in Escherichia coli and purified (protein, UniProt P00167 2-134, looked up)
Cytochrome b5: AEQSDEAVKYYTLEEIQKHNHSKSTWLILHHKVYDLTKFLEEHPGGEEVLREQAGGDATENFEDVGHSTDAREMSKTFIIGELHPDDRPKLNKPPETLITTIDSSSSWWTNWVIPAISAVAVALMYRLYMAED
  Specific content: 60 nmol/mg protein
